Assay results from PubChem BioAssay AID493014 (National Center for Advancing Translational Sciences (NCATS), 2011).
Among all 340,000 compounds or so, about 170 (0.05%) were called active. The inconclusive results got no clear call from the source; some entries with a clear call stand among them for comparison. The call rests on the fitted dose curve; in most records, active means well fitted inhibition curve with a large enough effect in the signal ratio, with a control signal flat (not every such curve was filed as active); inconclusive means small, poorly fitted or top-dose-only effect, or effect the other way, or a change in a side signal; inactive means flat fitted curve, though single readings scatter; the % refers to the signal ratio. Potencies of inconclusive entries are doubtful fits and often do not repeat.

assay: qHTS Assay to Find Inhibitors of Chronic Active B-Cell Receptor Signaling; details: ABC-DLBCL IkBa-CBG/CBR reporter, luminescence ratio (green luciferase fused to IkBa over red control in TMD8 lymphoma cells), 4 h; activity change, negative = inhibition: at 46.1 µM (top of the series);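 on activity change, negative = inhibition: plate controls were basal doxycycline-induced cells for no effect and cells given 10 µM MG132 for full effect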
In short: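 TMD8 ABC-DLBCL cells carrying doxycycline-inducible green luciferase fused to IkappaBalpha plus unfused red luciferase were exposed to compounds (up to 46 uM) for 4 hrs at 37C. Activity came from the overlap-corrected green/red luminescence ratio.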
Potency means the concentration at half of the fitted maximal effect.

Row | Compound | activity change, negative = inhibition | Potency
1 | CCCCc1ccc(N2C(=NC(=O)C3CCCO3)SC3CS(=O)(=O)CC32)cc1 (configuration not stated) | inactive | –
2 | COc1ccc(C(=O)CSc2nnc(Cn3cnc4ccccc43)o2)cc1 | inactive | –
3 | Cc1ccc(S(=O)(=O)NC(CC(C)C)C(=O)N2CCN(C/C=C/c3ccccc3)CC2)cc1 (configuration not stated) | inconclusive: -5.3% | –
4 | O=C(CCn1nc(-c2ccccc2)c2ccccc2c1=O)N1CCN(c2ccccc2)CC1 | inconclusive: 2.34% | –
5 | CCCCNC(=O)Nc1nc2ccccc2s1 | – | inconclusive: 22.4 µM [falling, single point]
6 | COc1ccc(-n2c(-c3ccccc3)c[n+]3c2CCC3)cc1 | inactive | –
7 | COc1ccc(-c2noc(CCC(=O)O)n2)cc1 | inconclusive: 14.3% | –
8 | CCN1/C(=C/C(=S)Nc2ccccc2)Sc2ccccc21 | inconclusive: 243% | –
9 | COc1cccc(/C=N/N2CCOCC2)c1O | – | inconclusive: 16.4 µM [falling, single point]
10 | O=S(=O)(c1ccc(SCc2cccc(Cl)c2)nc1)N1CCCC1 | inconclusive: 0.0497% | –
11 | Cc1cc(C)c2cc(CN(CCO)C(=O)Nc3ccc(F)cc3)c(=O)[nH]c2c1 | inconclusive: -0.258% | –
12 | O=C(N/N=C/C1CC=CCC1)c1ccc(O)cc1O (configuration not stated) | – | inconclusive: 20.6 µM [falling, partial curve]
13 | CN1CCN(NC(=O)Nc2cc(Cl)cc(Cl)c2)CC1 | inactive | –
14 | Cc1ccc2nc(N3C(=O)C(O)=C(C(=O)c4ccc(C)o4)C3c3ccc(O)cc3)sc2c1 (configuration not stated) | – | inconclusive: 23.1 µM [falling, partial curve]
15 | Cc1cc(C)cc(NC(=O)COC(=O)Cn2cnc3c2c(=O)n(C)c(=O)n3C)c1 | inactive | –
16 | COc1ccc2nc(SCC(=O)Nc3ccccc3C#N)[nH]c2c1 | inconclusive: 5.95% | –
17 | COC(=O)c1c(-c2ccc(OC)cc2)sc2cc3c(cc12)OCO3 | inconclusive: 11.6% | –
18 | CS(=O)(=O)N(CC(=O)NCCSCc1c(F)cccc1Cl)c1ccc2c(c1)OCO2 | inconclusive: -20.5% | –
19 | Cc1cc(NS(=O)(=O)c2ccc(NC(=O)Nc3cccc(C(F)(F)F)c3)cc2)no1 | inconclusive: -10% | –
20 | COc1cc(OC)cc(C(=O)N/N=C(\C)CC(=O)Nc2ccccn2)c1 | – | inconclusive: 10 µM [cytotoxic, partial curve]
21 | CCOc1ccc(-n2c(SCc3nc(-c4ccc(C)cc4)no3)nnc2-c2ccncc2)cc1 | inconclusive: -21.8% | –
22 | CC(C)c1ccc(C(=O)N2CCN(c3cnn(C)c(=O)c3Cl)CC2)cc1 | – | inconclusive: 20 µM [falling, partial curve, poor fit]

An excerpt of these results, in markdown:

| Row | Compound | activity change, negative = inhibition | Potency |
| --- | --- | --- | --- |
| 15 | Cc1cc(C)cc(NC(=O)COC(=O)Cn2cnc3c2c(=O)n(C)c(=O)n3C)c1 | inactive | – |
| 22 | CC(C)c1ccc(C(=O)N2CCN(c3cnn(C)c(=O)c3Cl)CC2)cc1 | – | inconclusive: 20 µM [falling, partial curve, poor fit] |
